Laboratory results: PubChem BioAssay AID1224827 (NIAID, 2016)
Here is one part, drawn at random, of about 3,800 reagents. About 2,200 of all reagents (57%) count as active. 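Active means a strong reporter change in either direction; calls are per siRNA, not per gene; qiagen siRNAs gave weaker effects.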 A number with no mark means an inactive call. Reagents against one gene are numbered here. Not all columns of the deposit are shown. Reagent sequences are not shown.

Assay: 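Retest primary hits on a TNF reporter with six siRNAs per gene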 (follow-up of hits)
Cell system: RAW264.7 G9 mouse macrophage reporter clone
Reagents: single siRNA against mouse genes, 100 nM siRNA
Time to read-out: siRNA for 2 days, then LPS about 16 h
Conditions: bacterial lipopolysaccharide (LPS), 10 ng/ml, cells fixed after overnight (about 16 h) stimulation
Measured: 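Imaged nuclear TNF reporter intensity, background removed, scaled per plate and to non-targeting control wells, as z-scores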
Reading the numbers: TNF reporter z-score, mean: higher = stronger Tnf promoter reporter signal; gene median z, three same-vendor siRNAs: higher = stronger Tnf reporter signal for the gene
Hit rule: 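Active siRNA: replicate-mean z-score of 2 or more, or -2 or less; no calls for control wells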

Msn #1: TNF reporter z-score, mean = -0.134; gene median z, three same-vendor siRNAs = -2.36
Msn #2: TNF reporter z-score, mean = -2.36 (active); gene median z, three same-vendor siRNAs = -2.36
Msn #3: TNF reporter z-score, mean = -5.26 (active); gene median z, three same-vendor siRNAs = -2.36
Msn #4: TNF reporter z-score, mean = 3.99 (active); gene median z, three same-vendor siRNAs = 3.03
Msn #5: TNF reporter z-score, mean = 3.87 (active); gene median z, three same-vendor siRNAs = 3.03
Msn #6: TNF reporter z-score, mean = 2.17 (active); gene median z, three same-vendor siRNAs = 3.03
Fam53a #1: TNF reporter z-score, mean = 2.25 (active); gene median z, three same-vendor siRNAs = -3.06
Fam53a #2: TNF reporter z-score, mean = -3.45 (active); gene median z, three same-vendor siRNAs = -3.06
Fam53a #3: TNF reporter z-score, mean = -3.57 (active); gene median z, three same-vendor siRNAs = -3.06
Fam53a #4: TNF reporter z-score, mean = 3.29 (active); gene median z, three same-vendor siRNAs = -2.35
Fam53a #5: TNF reporter z-score, mean = -2.35 (active); gene median z, three same-vendor siRNAs = -2.35
Fam53a #6: TNF reporter z-score, mean = -3.09 (active); gene median z, three same-vendor siRNAs = -2.35
Bpifb5 #1: TNF reporter z-score, mean = -0.918; gene median z, three same-vendor siRNAs = -2.7
Bpifb5 #2: TNF reporter z-score, mean = -2.7 (active); gene median z, three same-vendor siRNAs = -2.7
Bpifb5 #3: TNF reporter z-score, mean = -4.87 (active); gene median z, three same-vendor siRNAs = -2.7
Bpifb5 #4: TNF reporter z-score, mean = 3.19 (active); gene median z, three same-vendor siRNAs = 0.0887
Bpifb5 #5: TNF reporter z-score, mean = 2.12 (active); gene median z, three same-vendor siRNAs = 0.0887
Bpifb5 #6: TNF reporter z-score, mean = -4.08 (active); gene median z, three same-vendor siRNAs = 0.0887
Tnfrsf17 #1: TNF reporter z-score, mean = 0.467; gene median z, three same-vendor siRNAs = -2.36
Tnfrsf17 #2: TNF reporter z-score, mean = -2.36 (active); gene median z, three same-vendor siRNAs = -2.36
Tnfrsf17 #3: TNF reporter z-score, mean = -3.99 (active); gene median z, three same-vendor siRNAs = -2.36
Tnfrsf17 #4: TNF reporter z-score, mean = 0.683; gene median z, three same-vendor siRNAs = -0.579
Tnfrsf17 #5: TNF reporter z-score, mean = -0.148; gene median z, three same-vendor siRNAs = -0.579
Tnfrsf17 #6: TNF reporter z-score, mean = -0.947; gene median z, three same-vendor siRNAs = -0.579
Fam91a1 #1: TNF reporter z-score, mean = -0.664; gene median z, three same-vendor siRNAs = -2.21
Fam91a1 #2: TNF reporter z-score, mean = -2.63 (active); gene median z, three same-vendor siRNAs = -2.21
Fam91a1 #3: TNF reporter z-score, mean = -2.57 (active); gene median z, three same-vendor siRNAs = -2.21
Fam91a1 #4: TNF reporter z-score, mean = 3.41 (active); gene median z, three same-vendor siRNAs = 0.83
Fam91a1 #5: TNF reporter z-score, mean = -0.501; gene median z, three same-vendor siRNAs = 0.83
Fam91a1 #6: TNF reporter z-score, mean = 0.00416; gene median z, three same-vendor siRNAs = 0.83
Pard6a #1: TNF reporter z-score, mean = -0.842; gene median z, three same-vendor siRNAs = -3.29
Pard6a #2: TNF reporter z-score, mean = -3.29 (active); gene median z, three same-vendor siRNAs = -3.29
Pard6a #3: TNF reporter z-score, mean = -4.73 (active); gene median z, three same-vendor siRNAs = -3.29

2 of these entries in another layout:
Msn #4
- TNF reporter z-score, mean: 3.99 (active)
- gene median z, three same-vendor siRNAs: 3.03

Msn #5
- TNF reporter z-score, mean: 3.87 (active)
- gene median z, three same-vendor siRNAs: 3.03
